Test results from PMC13579993.
No constants are given. Whether binding was seen depends on the method and setting. Binding seen in cells or lysates may run through a third protein. Some results given as binding are weak or reduced against the parent protein; the word gives no strength.

Amino acid sequences for entries named in this document (tags omitted). Residues count along the entry.
UniProt P32248, residues 25-378: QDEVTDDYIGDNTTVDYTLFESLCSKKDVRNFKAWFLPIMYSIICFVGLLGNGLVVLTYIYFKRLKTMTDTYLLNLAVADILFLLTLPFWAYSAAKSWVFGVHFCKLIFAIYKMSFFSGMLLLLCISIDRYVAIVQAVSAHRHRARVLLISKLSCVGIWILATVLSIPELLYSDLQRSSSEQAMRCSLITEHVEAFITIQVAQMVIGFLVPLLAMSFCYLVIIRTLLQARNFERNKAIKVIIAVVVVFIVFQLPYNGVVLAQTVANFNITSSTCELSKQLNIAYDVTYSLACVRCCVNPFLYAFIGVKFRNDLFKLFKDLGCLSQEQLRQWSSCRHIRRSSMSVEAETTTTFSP

Target: C-C chemokine receptor 7 (human (endogenous in Raji)) (UniProt P32248)
Assay: co-IP; Raji cell lysate (RIPA:PMSF 100:1); antibody to CCR7, KMT2D or LGALS9, or IgG, on protein A+G magnetic beads, 4 °C for 6 h; beads washed 3 times with RIPA; Western blot

binding: binds
Substance: LGALS9 (Galectin-9) (from UniProt O00182 1-355)
